# Test results from paper doi:10.1101/2025.04.08.647572.
# For at least one entry, the source does not settle the construct or the ends of the probe. For part of these data: Weaker means in comparison with the reference protein, sequence or condition of that experiment.
# Assays:
# Assay in all cases: fluorescence anisotropy
# Conditions in all cases: 50 mM NaCl
# [1] = system: OBMg group 1 (Moorella glycerini)
# [2] = system: OBMg group 2 (Moorella glycerini)
# [3] = system: OBMg group 3 (Moorella glycerini)
# [4] = system: OBMg K121A (Moorella glycerini)
# [5] = system: OBMg H120A (Moorella glycerini)
# [6] = system: OBMg N103A (Moorella glycerini)
sequence,measurement,setting,value
GTTCGCAACGAA (double strand) [12 bp FAM-dsDNA],binding result,[1],binds more weakly
same,binding result,[2],binds more weakly
same,binding result,[3],binds more weakly
same,binding result,[4],binds
same,binding result,[5],binds
same,binding result,[6],binds
